Measurements from patent US20210393645A1, “TREATMENT FOR PROGRESSIVE MULTIPLE SCLEROSIS” (UTI LIMITED PARTNERSHIP, priority 2016, published 2021).

System: human neurons
Assay: Iron (FeSO4) mediated neurotoxicity screening, MAP-2 positive neurons counted
Format: cell-based
Settings: drug 10 μM
Method: Human neurons were isolated from brain tissues of therapeutically aborted 15-20 week old fetuses, in accordance with ethics approval of the University of Calgary ethics committee, after written informed consent of the pregnant donors. Neurons were isolated as previously described (Vecil et al., 2000) brain specimens were washed in phosphate buffered saline (PBS) to remove blood, followed by removal of meninges. […] Thereafter, the digestion was stopped by addition of 4 ml fetal calf serum (FCS). […] Cells were cultured in feeding medium of minimal essential medium (MEM) supplemented with 10% fetal bovine serum (FBS), 1 μM sodium pyruvate, 10 μM glutamine, 1× non-essential amino acids, 0.1% dextrose and 1% penicillin/streptomycin (all culture supplements from Invitrogen, Burlington, Canada). […] For experiments, the neuron-enriched cultures were retrypsinized and cells were plated in poly-L-ornithine pre-coated 96-well plates at a density of 100,000 cells/well in 100 μl of the complete medium supplemented with cytosine arabinoside. […] All conditions were performed in quadruplicates. […]
Images were taken using the automated ImageXpress® imaging system (Molecular Devices, Sunnyvale, Calif.) through a 10x objective microscope lens, displaying 4 or 9 sites per well. […] Cells were defined according to fluorescence intensity and size at different wavelengths. […]

## CC(C)NCC(O)COc1ccc(CC(N)=O)cc1 (stereo not shown) [ATENOLOL]
  protection from FeSO4-mediated neurotoxicity (in words): prevented iron-mediated neurotoxicity beyond levels of controls
